Measurements published in the supplement of paper PMC3682954.
Structures can show the parent of a compound that is named as a salt. ± gives the standard deviation of the averaged measurements. The list shows a part of the results. Repeats are few or missing, and single values can be far off.

System: RAW 264.7
Experiment: HMGB1-induced TNF-alpha production relative to HMGB1-stimulated control; higher = more TNF-alpha secretion (less inhibition)
Conditions: stimulus: HMGB1 5 ug/ml, 18 h
[1] = compound concentration: 1 ug/ml

SMILES	HMGB1-induced TNF-alpha production (compound concentration: 3 uM)	HMGB1-induced TNF-alpha production [1]
CCCN(CC1CC1)c1nc(C)nc(Nc2c(Cl)cc(Cl)cc2Cl)c1Cl	80.2%	
Nc1ncnc2c1ncn2C1CCCC1 [9-cyclopentyladenine]	80.1%	
C[C@]12CCC(=O)C=C1CC[C@@H]1[C@@H]2[C@@H](O)C[C@@]2(C)[C@H]1CC[C@]2(O)C(=O)COP(=O)(O)O	58.9%	
Nc1ccn([C@@H]2O[C@H](COP(=O)(O)O)[C@@H](O)[C@H]2O)c(=O)n1 [Cytidine 5'-monophosphate]		80.3%
CC(=O)OCC(=O)[C@@]1(O)CC[C@H]2[C@@H]3CCC4=CC(=O)C=C[C@]4(C)[C@H]3[C@@H](O)C[C@@]21C	33.5%	
CC(=O)OCC(=O)[C@@]1(O)CC[C@H]2[C@@H]3CCC4=CC(=O)C=C[C@]4(C)[C@H]3[C@@H](O)C[C@@]21C [prednisolone 21-acetate]		35.9%
O=C1NC(c2cccc([N+](=O)[O-])c2)=CCN1c1ccccc1O [Icilin]	90.6%	
COc1cc(N)c(Cl)cc1C(=O)OCCN1CCCCC1	100%	
Cc1cc(=O)oc2cc(OC3OC(C(=O)O)C(O)C(O)C3O)ccc12 [4-Methylumbelliferyl-beta-D-glucuronide trihydrate]		67.1%
Cc1c(Nc2ncccc2C(=O)O)cccc1C(F)(F)F [Flunixin meglumine]	101%	
Cc1c(Nc2ncccc2C(=O)O)cccc1C(F)(F)F	89.2%	
CC[C@H](c1ccc(O)cc1)[C@@H](CC)c1ccc(O)cc1	64.9%	
CC[C@H](c1ccc(O)cc1)[C@@H](CC)c1ccc(O)cc1 [Hexestrol]	92.8 ± 22%	
CCCCCC(O)CCCC(=O)O (centres undefined) [5-hydroxydecanoic acid sodium]	89.4%	
C=CCNc1ncnc2c1ncn2[C@@H]1O[C@H](CO)[C@@H](O)[C@H]1O [N-Allyladenosine]		85.7%
COc1cc2oc(-c3ccccc3)cc(=O)c2cc1O		60.9%
CC(=O)Oc1ccc(/C=C/C(=O)CC2OC(Oc3cc(OC(C)=O)c4c(c3)O[C@@H](c3ccc(OC(C)=O)cc3)CC4=O)C(OC(C)=O)C(OC(C)=O)C2OC(C)=O)cc1 (some centres undefined)		78.2%
CCN1CCCC1CNC(=O)c1cc(S(N)(=O)=O)ccc1OC (racemic) [(±)-Sulpiride]	114%	
O=c1c(O)c(-c2ccccc2)oc2cc(O)cc(O)c12 [Galangin]		52.2%
O=C(O)c1cc(=O)c2c(OCC(O)COc3cccc4oc(C(=O)O)cc(=O)c34)cccc2o1 [Disodium Cromoglycate]	103%	
O=C(O)c1cc(=O)c2c(OCC(O)COc3cccc4oc(C(=O)O)cc(=O)c34)cccc2o1 [Cromolyn disodium salt]	116%	
O=C(O)c1cc(=O)c2c(OCC(O)COc3cccc4oc(C(=O)O)cc(=O)c34)cccc2o1	70.2%	
C=CCc1ccccc1OCC(O)CNC(C)C (centres undefined) [Alprenolol hydrochloride]	91.5 ± 19%	
C=CCc1ccccc1OCC(O)CNC(C)C (centres undefined)	97.3%	
C=CCc1ccccc1OCC(O)CNC(C)C (centres undefined) [Alprenolol]	98.7%	
NC[C@H]1CC[C@H](C(=O)O)CC1	77.4%	
NC[C@H]1CC[C@H](C(=O)O)CC1 [Tranexamic acid]	79.6%	

Single records (already shown).
C=CCNc1ncnc2c1ncn2[C@@H]1O[C@H](CO)[C@@H](O)[C@H]1O [N-Allyladenosine] in the list: HMGB1-induced TNF-alpha production [1]: 85.7%
O=C(O)c1cc(=O)c2c(OCC(O)COc3cccc4oc(C(=O)O)cc(=O)c34)cccc2o1 [Cromolyn disodium salt] in the list: HMGB1-induced TNF-alpha production (compound concentration: 3 uM): 116%

(cont.)

SMILES	HMGB1-induced TNF-alpha production (compound concentration: 3 uM)	HMGB1-induced TNF-alpha production [1]
Oc1c(Cl)cc(Cl)cc1Sc1cc(Cl)cc(Cl)c1O	84.1%	
CCCCOc1ccc(CC(=O)NO)cc1	84.4%	
CCCCOc1ccc(CC(=O)NO)cc1 [Bufexamac]	81.7%	
CC(=O)OC(C)C[N+](C)(C)C (centres undefined) [Methacholine chloride]	93.6%	
CC(=O)OC(C)C[N+](C)(C)C (stereo not drawn) [Acetyl-beta-methylcholine chloride]	86.3%	
CC(=O)OC(C)C[N+](C)(C)C (centres undefined)	98.8%	
CCCCC[C@H](CC(=O)NO)C(=O)N[C@H](C(=O)N1CCC[C@H]1CO)C(C)C [Actinonin]	92.2%	
Cc1nc(N=Nc2ccc(S(=O)(=O)O)cc2S(=O)(=O)O)c(COP(=O)(O)O)c(C=O)c1O	104%	
Cc1ccc(O)c([C@H](CCN(C(C)C)C(C)C)c2ccccc2)c1	112%	
CCN1/C(=C/C(C)=O)Sc2ccc(OC)cc21	114%	
CN(C)C(=O)N=NC(=O)N(C)C [N,N,N',N'-Tetramethylazodicarboxamide]	98.7%	
C/N=C(/NC#N)NCCSCc1csc(NC(=N)N)n1 [Tiotidine]	135%	
Nc1nc(=O)c2c([nH]1)NCC(CNc1ccc(C(=O)N[C@@H](CCC(=O)O)C(=O)O)cc1)N2C=O (some centres undefined)	109%	
O=c1cc(-c2cccc(O)c2)oc2c(O)c(O)ccc12		74.7%
CCOc1ccc2cc(-c3ccccc3Cl)c(=O)oc2c1 [3(2'-Chlorophenyl)-7-ethoxycoumarin]		72.5%
CCSc1ccc2c(c1)N(CCCN1CCN(C)CC1)c1ccccc1S2 [Thiethylperazine malate]	109%	
Cc1c(O)cccc1C(=O)N[C@@H](CSc1ccccc1)[C@H](O)CN1C[C@H]2CCCC[C@H]2C[C@H]1C(=O)NC(C)(C)C [Nelfinavir mesylate]	74.2%	
Cc1c(O)cccc1C(=O)N[C@@H](CSc1ccccc1)[C@H](O)CN1C[C@H]2CCCC[C@H]2C[C@H]1C(=O)NC(C)(C)C	98.6%	
CC(C)CCC[C@@H](C)[C@H]1CC[C@H]2[C@@H]3CC=C4C[C@@H](O)CC[C@]4(C)[C@H]3CC[C@]12C	95.7%	
Nc1ccn([C@@H]2O[C@H](CO)[C@@H](O)[C@H]2O)c(=O)n1 [Cytidine]		81.8%
CN(C)CCC(c1ccccc1)c1ccccn1 (centres undefined)	93.8%	
CN(C)CCC(c1ccccc1)c1ccccn1 (centres undefined) [Pheniramine maleate]	89.8 ± 30%	
COc1ccc(/C=C2\COc3ccc(C)cc3C2=O)cc1O	92.6%	
COC1=C(OC)C(=O)c2ccccc2C1=O [2,3-Dimethoxy-1,4-naphthoquinone]	116%	
CC[C@]1(O)C[C@@H]2CN(CCc3c([nH]c4ccccc34)[C@@](C(=O)OC)(c3cc4c(cc3OC)N(C)[C@H]3[C@@](O)(C(=O)OC)[C@H](OC(C)=O)[C@]5(CC)C=CCN6CC[C@]43[C@@H]65)C2)C1 [Vinblastine]	91.8%	
CC[C@]1(O)C[C@@H]2CN(CCc3c([nH]c4ccccc34)[C@@](C(=O)OC)(c3cc4c(cc3OC)N(C)[C@H]3[C@@](O)(C(=O)OC)[C@H](OC(C)=O)[C@]5(CC)C=CCN6CC[C@]43[C@@H]65)C2)C1 [Vinblastine sulfate salt]	128%	
CC[C@]1(O)C[C@@H]2CN(CCc3c([nH]c4ccccc34)[C@@](C(=O)OC)(c3cc4c(cc3OC)N(C)[C@H]3[C@@](O)(C(=O)OC)[C@H](OC(C)=O)[C@]5(CC)C=CCN6CC[C@]43[C@@H]65)C2)C1	202 ± 77%	
